{
  "sequences": {"note": "Amino acid sequences for entries named in this document (tags omitted). A change or cut given only in a name is not applied to a line headed by its entry.", "UniProt Q13177, whole entry": "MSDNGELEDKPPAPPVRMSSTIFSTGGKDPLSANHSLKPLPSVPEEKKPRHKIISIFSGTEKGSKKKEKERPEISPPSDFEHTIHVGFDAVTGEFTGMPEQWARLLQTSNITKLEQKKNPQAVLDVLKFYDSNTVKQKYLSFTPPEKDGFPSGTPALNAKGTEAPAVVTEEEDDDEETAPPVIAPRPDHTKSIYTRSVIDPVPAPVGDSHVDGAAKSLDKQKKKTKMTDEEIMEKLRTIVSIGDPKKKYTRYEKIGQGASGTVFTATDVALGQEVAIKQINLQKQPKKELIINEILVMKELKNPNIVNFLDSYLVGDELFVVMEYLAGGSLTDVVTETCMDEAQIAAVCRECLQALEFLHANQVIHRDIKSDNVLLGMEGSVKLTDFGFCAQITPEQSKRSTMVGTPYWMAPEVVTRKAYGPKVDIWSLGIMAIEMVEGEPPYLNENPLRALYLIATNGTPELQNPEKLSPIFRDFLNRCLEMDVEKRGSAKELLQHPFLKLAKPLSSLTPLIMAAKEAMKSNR", "UniProt Q00688": "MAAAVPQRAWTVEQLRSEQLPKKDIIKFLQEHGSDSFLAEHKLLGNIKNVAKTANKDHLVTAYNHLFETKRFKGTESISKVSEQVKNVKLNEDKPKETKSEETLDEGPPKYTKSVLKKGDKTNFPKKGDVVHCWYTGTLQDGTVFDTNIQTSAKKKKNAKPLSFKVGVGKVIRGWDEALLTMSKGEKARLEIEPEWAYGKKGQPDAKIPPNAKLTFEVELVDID", "UniProt Q12800": "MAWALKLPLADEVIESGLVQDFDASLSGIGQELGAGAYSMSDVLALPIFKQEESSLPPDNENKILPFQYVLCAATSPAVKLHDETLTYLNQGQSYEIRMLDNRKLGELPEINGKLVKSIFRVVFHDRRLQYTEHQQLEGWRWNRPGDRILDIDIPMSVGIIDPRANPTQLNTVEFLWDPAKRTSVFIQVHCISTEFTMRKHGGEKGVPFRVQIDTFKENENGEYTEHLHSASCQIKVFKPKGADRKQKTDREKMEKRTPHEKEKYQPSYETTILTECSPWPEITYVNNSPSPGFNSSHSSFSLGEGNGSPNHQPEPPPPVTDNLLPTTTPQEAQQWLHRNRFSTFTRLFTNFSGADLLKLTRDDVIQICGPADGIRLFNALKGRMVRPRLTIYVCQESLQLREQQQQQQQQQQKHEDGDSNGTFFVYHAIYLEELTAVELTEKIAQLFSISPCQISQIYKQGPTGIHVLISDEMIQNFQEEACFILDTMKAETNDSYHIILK", "UniProt Q06945": "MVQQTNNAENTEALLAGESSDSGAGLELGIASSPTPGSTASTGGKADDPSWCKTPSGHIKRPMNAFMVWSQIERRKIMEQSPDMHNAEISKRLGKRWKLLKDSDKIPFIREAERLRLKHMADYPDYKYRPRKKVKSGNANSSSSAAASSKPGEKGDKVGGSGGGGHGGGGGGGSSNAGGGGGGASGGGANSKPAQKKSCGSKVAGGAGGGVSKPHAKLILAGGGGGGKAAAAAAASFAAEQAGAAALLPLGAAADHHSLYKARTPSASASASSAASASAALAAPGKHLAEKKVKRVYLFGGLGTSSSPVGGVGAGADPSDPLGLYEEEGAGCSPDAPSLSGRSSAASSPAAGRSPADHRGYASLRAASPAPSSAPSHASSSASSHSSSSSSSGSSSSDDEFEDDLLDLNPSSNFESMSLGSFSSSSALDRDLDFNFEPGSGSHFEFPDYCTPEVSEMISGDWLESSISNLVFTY"},
  "source": "the supplement of paper PMC6411743",
  "compound": "Nc1nc2c(ncn2[C@@H]2O[C@H](COP(=O)(O)OP(=O)(O)OP(=O)(O)O)[C@@H](O)[C@H]2O)c(=O)[nH]1 [guanosine triphosphate]",
  "experiment": "NP40-soluble protein abundance relative to vehicle (solubility fold change) (ratio); higher = more soluble protein in presence of GTP",
  "procedure": "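Solubility proteome profiling in Jurkat crude lysate. Lysate was treated with Mg-GTP (0.1-10 mM) for 10 min at room temperature and 3 min at 37 °C, then solubilised with 0.8% NP40 and benzonase, followed by ultracentrifugation. Proteins were quantified by TMT10 LC-MS/MS; the value is the NP40-soluble abundance relative to the NP40-processed vehicle, from 3 independent experiments.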",
  "note": "± gives the standard deviation of the averaged measurements. The list shows a part of the results.",
  "data": [
    {"target": "PAK2 (UniProt Q13177)", "values": [
      {"measurement": "NP40-soluble protein abundance", "setting": "concentration: 0.1mM", "result": "0.941 ± 0.038"},
      {"measurement": "NP40-soluble protein abundance", "setting": "concentration: 0.5mM", "result": "0.964 ± 0.043"},
      {"measurement": "NP40-soluble protein abundance", "setting": "concentration: 1mM", "result": "0.929 ± 0.055"},
      {"measurement": "NP40-soluble protein abundance", "setting": "concentration: 2mM", "result": "0.862 ± 0.058"},
      {"measurement": "NP40-soluble protein abundance", "setting": "concentration: 4mM", "result": "0.852 ± 0.062"},
      {"measurement": "NP40-soluble protein abundance", "setting": "concentration: 6mM", "result": "0.882 ± 0.066"},
      {"measurement": "NP40-soluble protein abundance", "setting": "concentration: 8mM", "result": "0.88 ± 0.063"},
      {"measurement": "NP40-soluble protein abundance", "setting": "concentration: 10mM", "result": "0.848 ± 0.064"}
    ]},
    {"target": "FKBP3 (UniProt Q00688)", "values": [
      {"measurement": "NP40-soluble protein abundance", "setting": "concentration: 0.1mM", "result": "0.911 ± 0.048"},
      {"measurement": "NP40-soluble protein abundance", "setting": "concentration: 0.5mM", "result": "0.906 ± 0.066"},
      {"measurement": "NP40-soluble protein abundance", "setting": "concentration: 1mM", "result": "0.943 ± 0.073"},
      {"measurement": "NP40-soluble protein abundance", "setting": "concentration: 2mM", "result": "0.906 ± 0.081"},
      {"measurement": "NP40-soluble protein abundance", "setting": "concentration: 4mM", "result": "0.902 ± 0.081"},
      {"measurement": "NP40-soluble protein abundance", "setting": "concentration: 6mM", "result": "0.905 ± 0.082"},
      {"measurement": "NP40-soluble protein abundance", "setting": "concentration: 8mM", "result": "0.925 ± 0.077"},
      {"measurement": "NP40-soluble protein abundance", "setting": "concentration: 10mM", "result": "0.943 ± 0.09"}
    ]},
    {"target": "UniProt Q12800 and related entries", "values": [
      {"measurement": "NP40-soluble protein abundance", "setting": "concentration: 0.1mM", "result": "1.09 ± 0.043"},
      {"measurement": "NP40-soluble protein abundance", "setting": "concentration: 0.5mM", "result": "1.12 ± 0.065"},
      {"measurement": "NP40-soluble protein abundance", "setting": "concentration: 1mM", "result": "1.03 ± 0.046"},
      {"measurement": "NP40-soluble protein abundance", "setting": "concentration: 2mM", "result": "1.08 ± 0.059"},
      {"measurement": "NP40-soluble protein abundance", "setting": "concentration: 4mM", "result": "1.04 ± 0.07"},
      {"measurement": "NP40-soluble protein abundance", "setting": "concentration: 6mM", "result": "1.02 ± 0.034"},
      {"measurement": "NP40-soluble protein abundance", "setting": "concentration: 8mM", "result": "0.994 ± 0.098"},
      {"measurement": "NP40-soluble protein abundance", "setting": "concentration: 10mM", "result": "0.987 ± 0.064"}
    ]},
    {"target": "UniProt Q14197", "values": [
      {"measurement": "NP40-soluble protein abundance", "setting": "concentration: 0.1mM", "result": "1.07 ± 0.19"},
      {"measurement": "NP40-soluble protein abundance", "setting": "concentration: 0.5mM", "result": "1.14 ± 0.26"},
      {"measurement": "NP40-soluble protein abundance", "setting": "concentration: 1mM", "result": "1.42 ± 0.46"},
      {"measurement": "NP40-soluble protein abundance", "setting": "concentration: 2mM", "result": "1.5 ± 0.45"},
      {"measurement": "NP40-soluble protein abundance", "setting": "concentration: 4mM", "result": "1.58 ± 0.56"},
      {"measurement": "NP40-soluble protein abundance", "setting": "concentration: 6mM", "result": "1.54 ± 0.51"},
      {"measurement": "NP40-soluble protein abundance", "setting": "concentration: 8mM", "result": "1.48 ± 0.53"},
      {"measurement": "NP40-soluble protein abundance", "setting": "concentration: 10mM", "result": "1.41 ± 0.52"}
    ]},
    {"target": "SOX4 (UniProt Q06945)", "values": [
      {"measurement": "NP40-soluble protein abundance", "setting": "concentration: 0.1mM", "result": "0.936 ± 0.066"},
      {"measurement": "NP40-soluble protein abundance", "setting": "concentration: 0.5mM", "result": "0.882 ± 0.045"},
      {"measurement": "NP40-soluble protein abundance", "setting": "concentration: 1mM", "result": "0.958 ± 0.057"},
      {"measurement": "NP40-soluble protein abundance", "setting": "concentration: 2mM", "result": "0.938 ± 0.096"},
      {"measurement": "NP40-soluble protein abundance", "setting": "concentration: 4mM", "result": "0.94 ± 0.12"},
      {"measurement": "NP40-soluble protein abundance", "setting": "concentration: 6mM", "result": "0.978 ± 0.092"},
      {"measurement": "NP40-soluble protein abundance", "setting": "concentration: 8mM", "result": "0.977 ± 0.074"},
      {"measurement": "NP40-soluble protein abundance", "setting": "concentration: 10mM", "result": "1.03 ± 0.085"}
    ]}
  ]
}
